# Data as given in PubChem BioAssay AID743454 (Peter MacCallum Cancer Centre, 2014).
# Screen: 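Search for knock-downs that restore vorinostat killing in resistant colon cancer cells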 (primary screen)
# System: human HCT116-VR colon cancer cells, selected for vorinostat resistance
# Reagents: siRNA pool against human genes, 40 nM siRNA pool
# Time to read-out: vorinostat for 24 h, read-out about 72 h after transfection
# Challenge: vorinostat at 2.5 µM final
# Measured: 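Cell viability by CellTiter-Fluor and caspase 3/7 activity by luminescence, each scaled to mock wells per plate, duplicates averaged, then robust z-scored over all plates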
# Scale: viability robust z-score: higher = more viable cells than screen typical; caspase robust z-score: higher = more caspase 3/7 activity than screen typical
# Hit rule: 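Hits are knock-downs in viability class RV1/RV2 or caspase class CA1/CA2, excluding ones that killed cells in the no-drug cell-count arm; hits then retested with single siRNAs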
# This is a random part of about 18,000 deposited reagents. 450 of all reagents (2.5%) count as active. 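Single biological run; no consistent viability z cut-off exists, so the class columns, not z-scores, define the calls.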 Entries without a mark were called inactive. No sequences are given here.
The opening 7 records, ahead of the listing:
target gene,viability hit class,caspase hit class,viability robust z-score,caspase robust z-score
ZBTB35,no change,no change,0.45,0.58
CEP97,no change,no change,-0.93,0.86
DEFB134,no change,no change,0.98,-0.55
OR8B4,no change,no change,1.57,-0.14
THAP9,no change,no change,-0.92,-1.01
CEBPB,no change,no change,0.42,-0.77
TMT1A,no change,no change,-0.99,3.72

The listing, from the start:
target gene,viability hit class,caspase hit class,viability robust z-score,caspase robust z-score
ZBTB35,no change,no change,0.45,0.58
CEP97,no change,no change,-0.93,0.86
DEFB134,no change,no change,0.98,-0.55
OR8B4,no change,no change,1.57,-0.14
THAP9,no change,no change,-0.92,-1.01
CEBPB,no change,no change,0.42,-0.77
TMT1A,no change,no change,-0.99,3.72
MED1,no change,no change,0.56,-0.68
DCX,no change,no change,0.46,-0.57
LTV1,no change,no change,-2.17,-1
RBM46,no change,no change,2.18,0.04
FRMD5,no change,no change,-0.96,-0.52
AWAT1,no change,no change,1.6,3.2
SNTG1,no change,no change,-0.96,-0.1
PAK6,no change,no change,1.22,0.11
TRIB3,no change,no change,-1.05,0.15
PRKACA,no change,no change,0.88,-0.32
GSTO2,no change,no change,0.98,-0.06
AKR1A1,no change,no change,-1.23,2.68
SHTN1,no change,no change,-1.21,3.35
TMEM127,no change,no change,0.26,-0.26
SHOX2,no change,no change,-0.08,1.04
STARD3,no change,no change,0.05,1.34
DLGAP5,no change,no change,0.23,0.03
CELA2B,no change,no change,0.02,0.18
OCRL,no change,no change,0.04,1.48
SHPK,no change,no change,-0.96,3.88
PANK1,no change,no change,-0.98,-0.62
ARG1,no change,no change,-1.51,-0.4
TTF2,no change,no change,1,-0.16
LDAH,no change,no change,0.88,-0.68
UCP1,no change,no change,1,-0.66
OR5M10,no change,no change,0.55,1.5
OR10W1,no change,no change,-1.45,0.58
SAP30L,no change,no change,-2.24,1.23
ARHGEF26,no change,no change,1.4,1.31
TCEAL4,no change,no change,-1.28,-0.18
SIVA1,no change,no change,0.23,-0.98
AKR1C4,no change,no change,0.34,0.78
PDZD4,no change,no change,0.26,0.3
OR4N3P,no change,no change,1.17,-0.29
PRDM14,no change,no change,0.4,0.28
CCR6,no change,no change,-1.5,1
CD4,no change,no change,-0.56,0.29
CTDSPL2,no change,no change,-0.33,2.42
CGB1,no change,no change,0.48,0.19
TEKT5,no change,no change,0.1,-0.29
SCN3A,no change,no change,-0.52,-0.72
FCRL6,no change,no change,1.11,0.08
PLEKHH2,no change,no change,-0.22,0.49
ENPP6,no change,no change,-0.16,0.05
ZNF354C,no change,no change,0.49,-0.24
ERCC2,no change,no change,-0.34,1.39
DDX21,no change,no change,-1.73,-0.71
MEN1,no change,no change,-1.81,4.2
ZBTB38,RV2 (reduced viability) (active),no change,-3.41,1.12
TPH1,no change,no change,1.14,0.12
